The text below walks through data of article PMC13568704.

By UniProt entry, the sequences of proteins in these tests, tags left out. Where a name states a change or a piece, a line headed by the entry shows the natural chain unless it says otherwise. Residues count along the entry.
UniProt P20163, residues 18-657: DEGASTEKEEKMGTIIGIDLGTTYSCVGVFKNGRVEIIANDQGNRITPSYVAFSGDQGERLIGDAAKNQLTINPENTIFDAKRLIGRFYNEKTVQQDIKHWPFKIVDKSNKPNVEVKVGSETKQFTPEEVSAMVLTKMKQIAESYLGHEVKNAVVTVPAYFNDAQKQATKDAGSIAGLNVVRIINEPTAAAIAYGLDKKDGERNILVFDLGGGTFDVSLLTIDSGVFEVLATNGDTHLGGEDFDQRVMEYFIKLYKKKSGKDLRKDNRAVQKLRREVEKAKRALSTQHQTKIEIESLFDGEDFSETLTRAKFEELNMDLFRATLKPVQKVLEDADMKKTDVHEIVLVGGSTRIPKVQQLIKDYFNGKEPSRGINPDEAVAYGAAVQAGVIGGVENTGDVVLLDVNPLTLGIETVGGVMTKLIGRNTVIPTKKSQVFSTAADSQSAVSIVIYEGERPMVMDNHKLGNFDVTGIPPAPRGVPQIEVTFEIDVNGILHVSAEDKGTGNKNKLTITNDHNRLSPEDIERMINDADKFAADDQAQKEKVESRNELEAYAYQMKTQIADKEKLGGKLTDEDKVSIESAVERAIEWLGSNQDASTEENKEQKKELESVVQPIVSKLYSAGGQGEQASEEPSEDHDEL
UniProt G5EEW1: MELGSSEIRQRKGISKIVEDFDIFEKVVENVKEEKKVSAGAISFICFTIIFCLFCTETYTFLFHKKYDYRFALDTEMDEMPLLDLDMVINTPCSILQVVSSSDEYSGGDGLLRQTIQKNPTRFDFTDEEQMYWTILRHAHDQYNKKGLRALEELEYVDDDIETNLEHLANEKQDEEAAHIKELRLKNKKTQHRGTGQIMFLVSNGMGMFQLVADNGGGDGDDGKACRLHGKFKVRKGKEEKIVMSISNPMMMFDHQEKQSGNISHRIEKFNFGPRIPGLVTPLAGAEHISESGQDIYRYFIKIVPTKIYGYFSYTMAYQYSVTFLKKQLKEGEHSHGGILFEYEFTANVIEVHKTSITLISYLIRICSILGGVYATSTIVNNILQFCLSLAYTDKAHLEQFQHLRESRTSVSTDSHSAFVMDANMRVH
UniProt Q93878: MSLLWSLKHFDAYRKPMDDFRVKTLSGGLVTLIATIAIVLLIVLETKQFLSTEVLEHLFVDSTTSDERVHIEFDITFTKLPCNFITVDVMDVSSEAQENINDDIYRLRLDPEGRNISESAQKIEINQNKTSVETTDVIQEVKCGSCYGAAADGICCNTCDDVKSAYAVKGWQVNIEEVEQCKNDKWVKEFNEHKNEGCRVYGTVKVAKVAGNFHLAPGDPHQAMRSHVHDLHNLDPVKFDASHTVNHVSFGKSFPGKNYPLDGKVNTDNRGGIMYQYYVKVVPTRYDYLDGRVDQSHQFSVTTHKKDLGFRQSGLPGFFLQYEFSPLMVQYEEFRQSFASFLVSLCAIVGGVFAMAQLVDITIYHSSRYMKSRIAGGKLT
UniProt Q09499: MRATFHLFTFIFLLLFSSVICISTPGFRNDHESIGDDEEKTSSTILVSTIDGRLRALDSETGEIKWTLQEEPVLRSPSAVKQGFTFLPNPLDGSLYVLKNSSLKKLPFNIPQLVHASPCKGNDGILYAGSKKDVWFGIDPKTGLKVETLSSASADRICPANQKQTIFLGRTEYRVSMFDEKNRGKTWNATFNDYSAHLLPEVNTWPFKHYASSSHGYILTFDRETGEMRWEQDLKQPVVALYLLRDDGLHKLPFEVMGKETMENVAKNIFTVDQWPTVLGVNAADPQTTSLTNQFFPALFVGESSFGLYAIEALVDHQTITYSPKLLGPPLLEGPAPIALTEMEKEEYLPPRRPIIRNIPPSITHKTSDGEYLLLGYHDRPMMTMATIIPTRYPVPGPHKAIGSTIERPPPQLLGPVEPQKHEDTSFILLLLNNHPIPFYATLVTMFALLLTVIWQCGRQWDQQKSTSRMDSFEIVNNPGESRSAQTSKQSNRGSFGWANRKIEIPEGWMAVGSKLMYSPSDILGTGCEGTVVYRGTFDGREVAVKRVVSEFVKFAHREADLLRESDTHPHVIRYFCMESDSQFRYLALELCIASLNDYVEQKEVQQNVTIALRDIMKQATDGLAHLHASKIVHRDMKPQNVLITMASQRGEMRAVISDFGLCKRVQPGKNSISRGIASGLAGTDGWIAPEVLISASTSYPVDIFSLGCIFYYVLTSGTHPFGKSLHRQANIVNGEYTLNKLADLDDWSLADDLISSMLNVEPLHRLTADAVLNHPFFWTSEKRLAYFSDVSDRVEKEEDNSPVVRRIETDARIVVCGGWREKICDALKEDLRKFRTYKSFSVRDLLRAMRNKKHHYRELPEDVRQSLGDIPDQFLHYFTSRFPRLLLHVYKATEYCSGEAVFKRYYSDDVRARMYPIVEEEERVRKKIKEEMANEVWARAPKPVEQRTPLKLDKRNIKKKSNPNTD

One test deals with HSP-4::Myc (C. elegans) (UniProt P20163). Description: co-IP; HEK293T co-transfected; RIPA lysates; anti-Myc gel beads overnight at 4°C; western blot; for HSP-4::Myc with IRE-1::HA with empty Flag vector, Flag::ERGI-2 or Flag::ERGI-3 co-expressed.
Test [1] concerns the target Flag::ERGI-2 (C. elegans) (UniProt G5EEW1). Kind of test: co-IP; HEK293T co-transfected; RIPA lysates; anti-FLAG M2 affinity gel overnight at 4°C; western blot.
The target of test [2] is Flag::ERGI-3 (C. elegans) (UniProt Q93878). The test is described as above.
Test [3] concerns the target Flag::ERGI-2 (C. elegans) (UniProt G5EEW1). Kind of test: co-IP; HEK293T; HSP-4::Myc, UNC-9::GFP and Flag::ERGI-2 or Flag::ERGI-3 expressed together (Fig 6G, 6H); precipitating antibody not given.
For test [4], the target named is Flag::ERGI-3 (C. elegans) (UniProt Q93878). Described as above.

These are yes or no findings as the source states them, for the method shown. In cells and extracts the contact can be indirect. A result given as binding can be weak or reduced; the word gives no strength. For some of these results: Tags and fused reporters may be left off the sequences shown.

For the molecule Flag::ERGI-2 (from UniProt G5EEW1), the binding result with HSP-4::Myc (C. elegans) is “binds”.

For HSP-4::Myc (from UniProt P20163 18-657), the binding result in test [1], in test [2], in test [3] and in test [4] was “binds” in each case.

In the case of “IRE-1::HA (ER luminal region) (from UniProt Q09499) (domain or fragment)”, the binding result is recorded as “no binding” in test [1], “no binding” in test [2] and “binds” with HSP-4::Myc (C. elegans).

B1: UNC-9::GFP (protein, UniProt O01393 1-386)
chain: MSMLLYYFASAVKSIQFHVDDDIIDKLNYYYTTAIITVFAILVSAKQYVGFPIQCWVPATFTEPMEQYTENYCWVQNTYFLPLHDYIPHNYAERENRQIGYYQWVPFVLALEALLFYVPTIVWRLLSWQSGIHVQSLVQMACDSRLLDLESRNRALQTIATNVEEALHVKHQVMSGNRLKLLNLIICTRSSGAAVTFLYISVKILYTVNIVGQIFLLNTFLGNRSKWYGLQVLNDLMNGREWEESGHFPRVTLCDFEVKVLGNVHRHTVQCVLMINMFNEKIFLFLWFWYFLLAGATLCSLFYWIYISVVPSRQLNFVGKYLTGIEGYKMVDSQSLRRFVFHFLRQDGVFLLRMVATHAGELPCYELAKTLWNNYCDNKEGKMHDV
As for B1, the binding result in test [3] and in test [4] was “binds” throughout.
